Experimental data: publication PMC6549187
Results are given in words; binding and its absence hold for the method and conditions named. Binding seen in cells or lysates may run through a third protein. Some binding calls cover weakened binding; strength is not graded here.

The chains behind the UniProt entries cited, without tags or fusion partners.
UniProt P31266: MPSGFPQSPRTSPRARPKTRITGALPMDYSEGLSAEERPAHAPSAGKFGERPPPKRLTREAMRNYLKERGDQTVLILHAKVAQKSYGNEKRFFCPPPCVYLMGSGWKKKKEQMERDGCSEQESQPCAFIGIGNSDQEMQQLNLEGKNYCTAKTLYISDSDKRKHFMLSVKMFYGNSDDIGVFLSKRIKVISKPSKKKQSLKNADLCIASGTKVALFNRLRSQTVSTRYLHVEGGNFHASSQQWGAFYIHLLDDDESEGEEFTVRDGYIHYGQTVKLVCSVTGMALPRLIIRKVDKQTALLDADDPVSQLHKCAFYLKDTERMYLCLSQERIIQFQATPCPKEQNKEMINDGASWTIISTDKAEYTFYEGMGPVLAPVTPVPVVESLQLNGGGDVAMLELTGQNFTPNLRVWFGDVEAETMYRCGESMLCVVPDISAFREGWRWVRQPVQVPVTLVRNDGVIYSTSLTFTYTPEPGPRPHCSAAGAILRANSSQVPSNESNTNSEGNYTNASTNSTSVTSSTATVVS
UniProt O35885: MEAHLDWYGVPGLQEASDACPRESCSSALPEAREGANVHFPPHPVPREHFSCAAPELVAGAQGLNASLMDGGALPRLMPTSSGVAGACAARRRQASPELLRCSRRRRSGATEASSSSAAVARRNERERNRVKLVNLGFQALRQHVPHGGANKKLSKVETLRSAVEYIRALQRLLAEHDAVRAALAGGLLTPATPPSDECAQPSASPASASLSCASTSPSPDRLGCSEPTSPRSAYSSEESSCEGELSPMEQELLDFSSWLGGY

Molecular target: Rbpj (mouse (endogenous in trophoblast cells)) (UniProt P31266)
Experiment: co-IP; 1 mg protein from trophoblast cells lysed in mild buffer (25 mM Tris, 150 mM NaCl, 1 mM EDTA, 1% Nonidet P-40, 5% glycerol; pH 7.4); antibodies to Rbpj and Mash2; Protein A agarose beads, overnight at 4 °C; immunoblot

binding: binds
Substance: achaete-scute complex homolog-like 2 (from UniProt O35885 1-263)
